Experimental data published in paper PMC517496.

Target: T1, Bel1/Tas trans-activator of primate foamy virus (PFV) (primate foamy virus (PFV)) (UniProt P14353)
T1 sequence: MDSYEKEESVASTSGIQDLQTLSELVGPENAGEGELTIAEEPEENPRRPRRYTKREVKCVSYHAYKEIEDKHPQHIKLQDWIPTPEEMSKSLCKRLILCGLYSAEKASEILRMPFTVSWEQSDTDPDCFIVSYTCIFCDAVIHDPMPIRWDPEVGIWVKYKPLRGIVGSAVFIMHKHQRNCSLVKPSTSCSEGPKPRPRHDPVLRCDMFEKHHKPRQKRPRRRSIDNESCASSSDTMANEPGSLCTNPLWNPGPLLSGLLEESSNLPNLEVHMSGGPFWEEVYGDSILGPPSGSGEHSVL
Test: co-IP; 293T cells cotransfected with pbel1s and FLAG-tagged partner; lysis in 150 mM NaCl, 20 mM Tris-HCl pH 7.5, 1% Triton X-100; precipitated with rabbit anti-Bel1 antiserum and protein A-Sepharose, washed three times with lysis buffer; immunoblot with monoclonal anti-FLAG

Substance	binding
FLAG-p300C (C-terminal region of p300, construct no. 4) (human) (domain or fragment)	no binding
FLAG-p300N (amino-terminal region of p300, construct no. 2) (human) (domain or fragment)	binds
FLAG-p300N-C/H1-ΔKIX* (construct no. 5) (human) (domain or fragment)	binds

Results are given in words; binding and its absence hold for the method and conditions named. Binding seen in cells or lysates may run through a third protein. Binding can be weak; no strength is given.
